Results are given in words; binding and its absence hold for the method and conditions named. In cells and extracts the contact can be indirect. Binding can be weak; no strength is given.
Molecular target: C-terminal Flag-tagged LAPTM4B (lysosomal protein transmembrane 4 beta) (UniProt Q86VI4)
Experiment: co-IP

Substance: HA-tagged TGFBR2 (from UniProt P37173 23-567) (receptor)
- binding: binds

From article doi:10.1101/2024.08.30.610429
